Data reported in patent US12065471B2, “B*44 restricted peptides for use in immunotherapy against cancers and related methods” (Immatics Biotechnologies GmbH, priority 2018, dated 2024).

Columns and labels:
[1] = test system: HLA molecules of primary tumor and normal tissue samples; assay: Identification and quantitation of tumor associated peptides presented on the cell surface (HLA immunoprecipitation, label-free LC-MS); parameters: species or system human; settings: cancer entities on which the peptide was found presented (HLA immunoprecipitation, LC-MS); abbreviations in table footnotes
[2] = test system: source genes (mRNA) in tumor and normal tissues; assay: Expression profiling of genes encoding the peptides (RNAseq); parameters: species or system human; settings: for Gene Expression in tumor samples: highly over-expressed (++): tumor types in which the peptide's source gene is highly over-expressed compared to a panel of normal tissues (RNAseq); for Gene Expression in tumor samples: over-expressed (+): tumor types in which the peptide's source gene is over-expressed compared to a panel of normal tissues (RNAseq); for Gene Expression in tumor samples: very highly over-expressed (+++): tumor types in which the peptide's source gene is very highly over-expressed compared to a panel of normal tissues (RNAseq)

Q: How did the “Peptide Presentation on cancer entities” value [1] turn out when “72: peptide found in F5 (gene looked up) (AEVGDIIKVHF; listed as Homo sapiens) [compound 72]” was run?
A: HCC

Q: What about the “Gene Expression in tumor samples: highly over-expressed (++)” value [2] of the same substance?
A: HCC

Q: What about the “Gene Expression in tumor samples: over-expressed (+)” value (from here on “Gene Expression … over-expressed (+)”) [2] of the same substance?
A: CCC

Q: For “456: peptide found in NRG1 (gene looked up) (SESPIRISV; listed as Homo sapiens) [compound 456]”, which “Peptide Presentation on cancer entities” value [1] is on record?
A: NSCLCsquam, OSCAR, PACA

Q: And the “Gene Expression … over-expressed (+)” value [2]?
A: HNSCC

Q: For “284: peptide found in ROR1 (gene looked up) (SQYPHTHTF; listed as Homo sapiens) [compound 284]”, which “Peptide Presentation on cancer entities” value [1] is on record?
A: CLL

Q: And the “Gene Expression in tumor samples: highly over-expressed (++)” value [2]?
A: CLL

Q: For “10: peptide found in CLDN6 (gene looked up) (SEYPTKNYV; listed as Homo sapiens) [compound 10]”, which “Peptide Presentation on cancer entities” value [1] is on record?
A: NSCLCadeno

Q: What about the “Gene Expression in tumor samples: highly over-expressed (++)” value [2] of the same substance?
A: CCC, GC, NSCLCadeno

Q: What about the “Gene Expression … over-expressed (+)” value [2] of the same substance?
A: HCC, HNSCC, NSCLCsquam, OSCAR, PACA, UEC

Q: What does the source list for “3: peptide found in TRPM8 (gene looked up) (DEIFTNDRRW; listed as Homo sapiens) [compound 3]”?
A: Peptide Presentation on cancer entities [1]: PRCA; Gene Expression in tumor samples: highly over-expressed (++) [2]: GBM, MEL, SCLC; Gene Expression in tumor samples: over-expressed (+) [2]: UEC; Gene Expression in tumor samples: very highly over-expressed (+++) [2]: PRCA

Q: Which results are given for “267: peptide found in APOB (gene looked up) (VELEVPQL; listed as Homo sapiens) [compound 267]”?
A: Peptide Presentation on cancer entities [1]: GC, HCC; Gene Expression in tumor samples: highly over-expressed (++) [2]: HCC

Q: Which results are given for “144: peptide found in NAT1 (gene looked up) (IEAYLERIGY; listed as Homo sapiens) [compound 144]”?
A: Peptide Presentation on cancer entities [1]: BRCA; Gene Expression in tumor samples: highly over-expressed (++) [2]: BRCA

Q: For “290: peptide found in CBX2 (gene looked up) (AECILSKRL; listed as Homo sapiens) [compound 290]”, which “Peptide Presentation on cancer entities” value [1] is on record?
A: BRCA, HNSCC

Q: What about the “Gene Expression in tumor samples: highly over-expressed (++)” value [2] of the same substance?
A: SCLC

Q: And the “Gene Expression … over-expressed (+)” value [2]?
A: AML, BRCA, GBC, GBM, HNSCC, MEL, NSCLCother, NSCLCsquam, OC, OSCAR, UEC

Q: Which “Peptide Presentation on cancer entities” value [1] does the source give for “264: peptide found in PGR (gene looked up) (RELIKAIGL; listed as Homo sapiens) [compound 264]” here?
A: BRCA

Q: And the “Gene Expression in tumor samples: highly over-expressed (++)” value [2]?
A: UEC

Q: What about the “Gene Expression … over-expressed (+)” value [2] of the same substance?
A: BRCA

Q: For “23: peptide found in MMP1 (gene looked up) (REYNLHRVA; listed as Homo sapiens) [compound 23]”, which “Peptide Presentation on cancer entities” value [1] is on record?
A: HNSCC

Q: What about the “Gene Expression in tumor samples: highly over-expressed (++)” value [2] of the same substance?
A: HNSCC, NSCLCsquam, OSCAR, UBC

Q: What about the “Gene Expression … over-expressed (+)” value [2] of the same substance?
A: CRC, GC, MEL, NSCLCadeno, PACA

Q: “367: peptide found in MET (gene looked up) (TEFAVKLKI; listed as Homo sapiens) [compound 367]” was tested. Which “Peptide Presentation on cancer entities” value [1] did it give?
A: NSCLCadeno

Q: And the “Gene Expression … over-expressed (+)” value [2]?
A: CCC, GBC, RCC

Q: For “71: peptide found in F5 (gene looked up) (AEVGDIIKV; listed as Homo sapiens) [compound 71]”, which “Peptide Presentation on cancer entities” value [1] is on record?
A: NSCLCadeno, PACA

Q: What about the “Gene Expression in tumor samples: highly over-expressed (++)” value [2] of the same substance?
A: HCC

Q: And the “Gene Expression … over-expressed (+)” value [2]?
A: CCC

Q: “11: peptide found in TRPM8 (gene looked up) (EENIVAIGI; listed as Homo sapiens) [compound 11]” was tested. Which “Peptide Presentation on cancer entities” value [1] did it give?
A: PRCA

Q: And the “Gene Expression in tumor samples: highly over-expressed (++)” value [2]?
A: GBM

Q: And the “Gene Expression … over-expressed (+)” value [2]?
A: MEL

Q: And the “Gene Expression in tumor samples: very highly over-expressed (+++)” value [2]?
A: PRCA

Q: Which results are given for “6: peptide found in ACP3 (gene looked up) (AELVGPVIPQDW; listed as Homo sapiens) [compound 6]”?
A: Peptide Presentation on cancer entities [1]: PRCA; Gene Expression in tumor samples: very highly over-expressed (+++) [2]: PRCA

Q: How did the “Peptide Presentation on cancer entities” value [1] turn out when “36: peptide found in TYR (gene looked up) (LEQASRIWSW; listed as Homo sapiens) [compound 36]” was run?
A: MEL

Q: And the “Gene Expression in tumor samples: highly over-expressed (++)” value [2]?
A: MEL

Q: “297: peptide found in EGFR (gene looked up) (DEYLIPQQGFF; listed as Homo sapiens) [compound 297]” was tested. Which “Peptide Presentation on cancer entities” value [1] did it give?
A: GC, HCC, NSCLCadeno, NSCLCsquam, OSCAR

Q: And the “Gene Expression in tumor samples: highly over-expressed (++)” value [2]?
A: GBM

Q: “210: peptide found in SIGLEC15 (gene looked up) (AEGEPPPALAW; listed as Homo sapiens) [compound 210]” was tested. Which “Peptide Presentation on cancer entities” value [1] did it give?
A: NHL, UBC

Q: What about the “Gene Expression in tumor samples: highly over-expressed (++)” value [2] of the same substance?
A: UBC

Q: And the “Gene Expression … over-expressed (+)” value [2]?
A: HCC, MEL, NHL, OC, PACA, UEC

Q: “51: peptide found in DNTT (gene looked up) (VEMTGKHQL; listed as Homo sapiens) [compound 51]” was tested. Which “Peptide Presentation on cancer entities” value [1] did it give?
A: AML

Q: And the “Gene Expression in tumor samples: highly over-expressed (++)” value [2]?
A: AML

Q: “310: peptide found in BTLA (gene looked up) (FELECPVKY; listed as Homo sapiens) [compound 310]” was tested. Which “Peptide Presentation on cancer entities” value [1] did it give?
A: CLL, NSCLCsquam

Q: What about the “Gene Expression in tumor samples: highly over-expressed (++)” value [2] of the same substance?
A: CLL

Q: What about the “Gene Expression … over-expressed (+)” value [2] of the same substance?
A: NHL

Q: How did the “Peptide Presentation on cancer entities” value [1] turn out when “348: peptide found in MET (gene looked up) (SEVLLTSISTF; listed as Homo sapiens) [compound 348]” was run?
A: NSCLCadeno

Q: And the “Gene Expression … over-expressed (+)” value [2]?
A: CCC, GBC, NSCLCadeno, RCC

Q: Which “Peptide Presentation on cancer entities” value [1] does the source give for “42: peptide found in MMP1 (gene looked up) (SEENTGKTYF; listed as Homo sapiens) [compound 42]” here?
A: HNSCC, NSCLCsquam, OSCAR

Q: And the “Gene Expression in tumor samples: highly over-expressed (++)” value [2]?
A: HNSCC, NSCLCsquam, OSCAR

Q: And the “Gene Expression … over-expressed (+)” value [2]?
A: CRC, GC, NSCLCadeno, PACA, UBC

Q: How did the “Peptide Presentation on cancer entities” value [1] turn out when “47: peptide found in SIGLEC15 (gene looked up) (TEVHSSPAQRW; listed as Homo sapiens) [compound 47]” was run?
A: NHL, UBC

Q: What about the “Gene Expression in tumor samples: highly over-expressed (++)” value [2] of the same substance?
A: UBC

Q: And the “Gene Expression … over-expressed (+)” value [2]?
A: AML, CCC, GC, HCC, NHL, OC, PACA, UEC

Q: What does the source list for “30: peptide found in FLT3 (gene looked up) (EEFCFSVRF; listed as Homo sapiens) [compound 30]”?
A: Peptide Presentation on cancer entities [1]: AML; Gene Expression in tumor samples: highly over-expressed (++) [2]: AML

Q: Which results are given for “184: peptide found in DNTT (gene looked up) (EEQLLQKVM; listed as Homo sapiens) [compound 184]”?
A: Peptide Presentation on cancer entities [1]: AML; Gene Expression in tumor samples: highly over-expressed (++) [2]: AML

Q: Which results are given for “338: peptide found in HTR3A (gene looked up) (AEMKFYVVI; listed as Homo sapiens) [compound 338]”?
A: Peptide Presentation on cancer entities [1]: NHL, OC; Gene Expression in tumor samples: over-expressed (+) [2]: NHL, OC

Q: With “46: peptide found in MMP13 (gene looked up) (SELGLPKEV; listed as Homo sapiens) [compound 46]” as the substance, how does the “Peptide Presentation on cancer entities” value [1] read?
A: HNSCC

Q: What about the “Gene Expression in tumor samples: highly over-expressed (++)” value [2] of the same substance?
A: HNSCC, NSCLCsquam, OSCAR

Q: What about the “Gene Expression … over-expressed (+)” value [2] of the same substance?
A: NSCLCadeno, UBC

Q: Which results are given for “41: peptide found in MMP1 (gene looked up) (EENTGKTYF; listed as Homo sapiens) [compound 41]”?
A: Peptide Presentation on cancer entities [1]: HNSCC, OSCAR; Gene Expression in tumor samples: highly over-expressed (++) [2]: HNSCC, NSCLCsquam, OSCAR; Gene Expression in tumor samples: over-expressed (+) [2]: CRC, GC, NSCLCadeno, PACA, UBC

Q: Which results are given for “213: peptide found in FERMT1 (gene looked up) (DEDLFHKL; listed as Homo sapiens) [compound 213]”?
A: Peptide Presentation on cancer entities [1]: OSCAR; Gene Expression in tumor samples: highly over-expressed (++) [2]: CRC; Gene Expression in tumor samples: over-expressed (+) [2]: GC, HNSCC, OSCAR, UBC

Q: “289: peptide found in PTPRZ1 (gene looked up) (NRYINIVAY; listed as Homo sapiens) [compound 289]” was tested. Which “Peptide Presentation on cancer entities” value [1] did it give?
A: GBM

Q: What about the “Gene Expression in tumor samples: highly over-expressed (++)” value [2] of the same substance?
A: GBM

Q: What does the source list for “209: peptide found in SIGLEC15 (gene looked up) (AEGEPPPAL; listed as Homo sapiens) [compound 209]”?
A: Peptide Presentation on cancer entities [1]: UBC; Gene Expression in tumor samples: highly over-expressed (++) [2]: UBC; Gene Expression in tumor samples: over-expressed (+) [2]: HCC, MEL, NHL, OC, PACA, UEC

Q: How did the “Peptide Presentation on cancer entities” value [1] turn out when “243: peptide found in FERMT1 (gene looked up) (VEQINISQDW; listed as Homo sapiens) [compound 243]” was run?
A: CRC, HNSCC

Q: What about the “Gene Expression in tumor samples: highly over-expressed (++)” value [2] of the same substance?
A: CRC

Q: What about the “Gene Expression … over-expressed (+)” value [2] of the same substance?
A: GC, HNSCC, NSCLCsquam, OSCAR, UBC

Q: How did the “Peptide Presentation on cancer entities” value [1] turn out when “340: peptide found in ABCC4 (gene looked up) (GELAPSHGL; listed as Homo sapiens) [compound 340]” was run?
A: PRCA

Q: What about the “Gene Expression … over-expressed (+)” value [2] of the same substance?
A: PRCA

Q: Which results are given for “2: peptide found in KLK2 (gene looked up) (EEFLRPRSL; listed as Homo sapiens) [compound 2]”?
A: Peptide Presentation on cancer entities [1]: PRCA; Gene Expression in tumor samples: over-expressed (+) [2]: CLL; Gene Expression in tumor samples: very highly over-expressed (+++) [2]: PRCA

Q: With “350: peptide found in APOB (gene looked up) (EEMLENVSL; listed as Homo sapiens) [compound 350]” as the substance, how does the “Peptide Presentation on cancer entities” value [1] read?
A: CCC, HCC

Q: And the “Gene Expression … over-expressed (+)” value [2]?
A: HCC

Q: “447: peptide found in FOLH1 (gene looked up) (KEFGLDSVEL; listed as Homo sapiens) [compound 447]” was tested. Which “Peptide Presentation on cancer entities” value [1] did it give?
A: CCC, HCC

Q: What about the “Gene Expression in tumor samples: highly over-expressed (++)” value [2] of the same substance?
A: PRCA

For part of these data: For expression read-outs the peptide stands for its source gene, whose mRNA was measured; the gene is not named for every peptide.
